Assay results from publication PMC6325109, “The transcription factor STAT5 catalyzes Mannich ligation reactions yielding inhibitors of leukemic cell proliferation” (Nature Communications, 2019).

Tested on: STAT5 dimer (STAT5a/STAT5b not distinguished in EMSA)
Test: EMSA
Details: without inhibitor, compound 10 inhibits the complex; EMSA: Active Motif Gelshift Chemiluminescent kit, salt and pH not stated; protein in an extract

AGATTTCTAGGAATTCAATCC (double strand) [STAT5 consensus EMSA probe]
binding result: binds

For at least one entry, the source does not settle the construct or the ends of the probe. Where cells or extracts were used, other partners may take part.
